Source: publication PMC3084761
Results are given in words; binding and its absence hold for the method and conditions named. Binding seen in cells or lysates may run through a third protein.

Amino acid sequences for entries named in this document (tags omitted). Residues count along the entry.
UniProt P14625, residues 22-803: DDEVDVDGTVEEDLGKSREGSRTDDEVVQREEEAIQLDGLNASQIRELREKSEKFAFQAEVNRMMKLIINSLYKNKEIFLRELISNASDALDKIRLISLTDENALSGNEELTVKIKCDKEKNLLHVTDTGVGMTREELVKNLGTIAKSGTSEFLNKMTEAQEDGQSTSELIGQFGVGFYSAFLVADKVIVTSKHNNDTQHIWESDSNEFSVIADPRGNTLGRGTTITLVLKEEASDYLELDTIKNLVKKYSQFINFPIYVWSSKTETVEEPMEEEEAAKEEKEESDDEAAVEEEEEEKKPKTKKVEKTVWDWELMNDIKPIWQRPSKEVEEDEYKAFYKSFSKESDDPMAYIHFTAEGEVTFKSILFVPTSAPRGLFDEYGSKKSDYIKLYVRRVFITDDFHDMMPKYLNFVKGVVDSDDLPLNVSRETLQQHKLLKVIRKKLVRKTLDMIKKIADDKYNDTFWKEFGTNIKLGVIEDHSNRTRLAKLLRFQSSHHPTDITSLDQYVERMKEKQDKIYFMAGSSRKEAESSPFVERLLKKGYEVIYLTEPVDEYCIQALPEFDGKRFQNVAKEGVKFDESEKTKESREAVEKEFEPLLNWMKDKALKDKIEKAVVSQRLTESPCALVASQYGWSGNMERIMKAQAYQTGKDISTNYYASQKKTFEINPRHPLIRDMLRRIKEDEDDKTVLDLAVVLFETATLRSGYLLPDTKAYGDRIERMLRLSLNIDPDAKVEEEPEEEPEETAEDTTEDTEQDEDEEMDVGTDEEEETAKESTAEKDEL
UniProt Q9GZT9: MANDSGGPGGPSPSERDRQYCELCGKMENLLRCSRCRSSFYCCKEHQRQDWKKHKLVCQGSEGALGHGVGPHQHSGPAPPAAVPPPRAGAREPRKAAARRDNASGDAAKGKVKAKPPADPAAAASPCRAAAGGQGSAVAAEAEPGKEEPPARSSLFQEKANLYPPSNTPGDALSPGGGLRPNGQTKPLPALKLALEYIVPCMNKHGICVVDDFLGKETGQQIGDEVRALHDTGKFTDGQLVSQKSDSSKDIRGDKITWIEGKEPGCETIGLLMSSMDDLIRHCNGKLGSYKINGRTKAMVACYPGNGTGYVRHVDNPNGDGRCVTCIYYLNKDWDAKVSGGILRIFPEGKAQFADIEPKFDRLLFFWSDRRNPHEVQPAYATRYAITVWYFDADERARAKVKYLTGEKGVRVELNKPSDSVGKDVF

Target: EYFP-fused GRP94 (GRP94 in pEYFP-N1) (UniProt P14625)
Assay: FRET or BRET; live-cell confocal FRET of ECFP (donor) and EYFP (acceptor) fusions in HEK293 cells transfected 48 h; acceptor/donor plasmid ratios 1:1 to 5:1; FRET efficiency against A/D ratio fitted to a 1:1 binding model

Substance: PHD2-ECFP (PHD2 coding sequence in pECFP-N1) (from UniProt Q9GZT9 1-426) (enzyme)
- binding: no binding
